Source: PubChem BioAssay AID720505 (Drosophila RNAi Screening Center, 2013)
The deposit covers about 20,000 reagents; below is an unselected part of those that have a named target and a result. In the full data, about 2,100 (10%) are marked active. 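Raw plate signals without normalisation; calls rest on control-based scores that were not deposited; replicate 2 separates called from uncalled poorly.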 Unmarked entries are inactive. Reagents against one gene are numbered here. A plus sign joins genes that one reagent is predicted to hit. Reagent sequences are not shown. Not given: the amount of reagent, the time to read-out.

- Screen: 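Fly regulators or components of the CRAC channel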 (primary screen)
- Cells: Drosophila S2R+ cells
- Reagents: long dsRNA against Drosophila genes
- Challenge: thapsigargin (2 µM) in calcium-free buffer to empty internal stores, then 2 mM calcium added back
- Measured: 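Fluo-4 signal in 384-well plates read on a FLIPR after thapsigargin (2 µM, calcium-free) store depletion and 2 mM calcium add-back; unnormalised mean endpoint per well; screen run twice, selected wells retested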
- Direction: calcium signal and retest calcium signal: higher = more calcium entry after store depletion
- Active means: 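Knock-downs counted as hits when calcium entry dropped relative to STIM1 positive and Rho1 negative controls present on each plate; roughly 1500 genes called, with reductions of differing size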
- Calls: active = called as lowering calcium entry; inactive = not called

predicted target | dsRNA no. | calcium signal, replicate 1 | calcium signal, replicate 2 | retest calcium signal, replicate 1 | retest calcium signal, replicate 2
pho | 1 | 112 | 169 | – | –
vir | 1 | 73 | 164 | – | –
Daao2 | 1 | 91 | 147 | – | –
CG5938 | 1 | 89.9 | 88.7 | – | –
CG14634 | 1 | 130 | 185 | – | –
gnu | 1 | 99.5 | 140 | – | –
Hexo1 | 1 | 102 | 115 | – | –
CG4393 | 1 | 238 | 132 | – | –
CG14556 | 1 | 304 | 102 | – | –
CG32053 | 1 | 90.3 | 105 | – | –
SMC5 | 1 | 105 | 103 | – | –
hbt + CG43779 | 1 | 35.6 (active) | 74.2 | – | –
hbt + CG43779 | 2 | 80.4 | 175 | – | –
cactin | 1 | 74.3 (active) | 123 | – | –
RpS19b | 1 | 127 | 88.5 | – | –
CG9826 | 1 | 115 | 172 | – | –
RpS11 | 1 | 226 | 158 | 110 | 106
RpS11 | 2 | 90 | 117 | – | –
CG1138 | 1 | 120 | 149 | – | –
rempA | 1 | 84.4 | 113 | – | –
CG15362 | 1 | 101 | 127 | – | –
CG11007 | 1 | 137 | 125 | – | –
Pak | 1 | 110 | 149 | – | –
Pak | 2 | 131 | 167 | – | –
CrzR | 1 | 151 | 106 | – | –
CrzR | 2 | 122 | 105 | – | –
CG15096 | 1 | 136 | 83.6 | – | –
CG11367 | 1 | 113 | 193 | – | –
CG33490 | 1 | 100 | 131 | – | –
CG18853 | 1 | 83.3 | 98.4 | – | –
trbl | 1 | 92.5 | 109 | – | –
Ir7f | 1 | 149 | 79.7 | – | –
CG30373 | 1 | 114 | 138 | – | –
CG15756 | 1 | 94.1 | 78.8 | – | –
His4r | 1 | 106 (active) | 60 | – | –
Wnt2 | 1 | 105 | 98.6 | – | –
Wnt2 | 2 | 137 | 176 | – | –
msl-2 | 1 | 114 | 144 | – | –
CG1077 | 1 | 102 | 124 | 93.4 | 86.1
Tdg | 1 | 113 | 141 | – | –
dtr | 1 | 106 | 4696 | – | –
sunn | 1 | 115 | 120 | – | –
CG12723 | 1 | 124 | 95 | 95.8 | 106
nop5 | 1 | 150 | 98.1 | – | –
a6 | 1 | 87.9 | 102 | – | –
CG13806 | 1 | 51 | 103 | – | –
HP1Lcsd | 1 | 70.2 (active) | 133 | – | –
Hat1 | 1 | 111 | 161 | – | –
CatB | 1 | 68.5 (active) | 77.6 | – | –
Myd88 | 1 | 193 | 94.9 | – | –
CG6066 | 1 | 135 | 186 | – | –
CG6066 | 2 | 55.5 (active) | 176 | – | –
fws | 1 | 85.3 | 111 | – | –
cnc | 1 | 189 | 160 | – | –
cnc | 2 | 170 | 275 | – | –
cnc | 3 | 183 | 180 | – | –
cnc | 4 | 190 | 179 | – | –
Hers + amn | 1 | 59.4 (active) | 124 | – | –
sbr | 1 | 73.7 (active) | 56 | – | –
sbr | 2 | 48.1 (active) | 40.3 | – | –
ZC3H3 | 1 | 61.5 (active) | 28.9 | – | –
rib | 1 | 130 | 134 | – | –
Jheh2 | 1 | 109 | 108 | – | –

Continued, starting with the last 10 of the part before.
predicted target | dsRNA no. | calcium signal, replicate 1 | calcium signal, replicate 2 | retest calcium signal, replicate 1 | retest calcium signal, replicate 2
cnc | 1 | 189 | 160 | – | –
cnc | 2 | 170 | 275 | – | –
cnc | 3 | 183 | 180 | – | –
cnc | 4 | 190 | 179 | – | –
Hers + amn | 1 | 59.4 (active) | 124 | – | –
sbr | 1 | 73.7 (active) | 56 | – | –
sbr | 2 | 48.1 (active) | 40.3 | – | –
ZC3H3 | 1 | 61.5 (active) | 28.9 | – | –
rib | 1 | 130 | 134 | – | –
Jheh2 | 1 | 109 | 108 | – | –
CG6508 | 1 | 108 | 116 | – | –
Adar | 1 | 101 | 172 | – | –
Hecw | 1 | 98.2 | 104 | – | –
Hecw | 2 | 64.5 (active) | 108 | – | –
CG30122 | 1 | 43 (active) | 98.3 | – | –
CG30122 | 2 | 201 | 172 | – | –
CG30269 | 1 | 94.8 | 219 | – | –
CG32137 | 1 | 151 | 116 | – | –
CG32137 | 2 | 134 | 102 | – | –
Ir94g | 1 | 274 | 140 | – | –
mRpL20 | 1 | 55 (active) | 120 | – | –
Cyp12a5 | 1 | 155 | 133 | – | –
Argk2 | 1 | 93.7 | 85.9 | – | –
Argk2 | 2 | 101 | 145 | – | –
rgr | 1 | 212 | 233 | – | –
rgr | 2 | 169 | 167 | – | –
papi | 1 | 91 | 132 | – | –
CG10038 | 1 | 137 | 131 | – | –
CG15891 + CG15892 | 1 | 133 | 109 | – | –
CG15891 + CG15892 | 2 | 152 | 134 | – | –
l(3)neo38 | 1 | 109 (active) | 162 | 84.1 | 5226
l(3)neo38 | 2 | 176 | 119 | – | –
l(3)neo38 | 3 | 164 | 101 | – | –
CG15211 | 1 | 105 | 88.6 | – | –
CG11044 | 1 | 160 | 129 | – | –
sNPF-R | 1 | 101 | 89.8 | – | –
Rcd5 | 1 | 126 | 101 | – | –
bchs | 1 | 225 | 109 | – | –
Arl5 | 1 | 78.7 | 90 | – | –
Phm | 1 | 98.5 | 99.5 | – | –
Cpr72Ea | 1 | 110 | 94 | – | –
CG9018 | 1 | 71.8 | 95.2 | – | –
aay | 1 | 96.2 | 157 | – | –
CG4520 | 1 | 128 | 119 | – | –
Cpsf5 | 1 | 95.4 | 114 | – | –
ND-24L | 1 | 119 | 175 | – | –
CG1889 | 1 | 103 | 119 | – | –
PrBP | 1 | 204 | 145 | – | –
qjt | 1 | 91.6 | 125 | – | –
ATPCL | 1 | 115 | 112 | – | –
HPS4 | 1 | 141 | 138 | – | –
CG5376 | 1 | 171 | 163 | – | –
pav | 1 | 107 | 115 | – | –
